# The supplement of paper PMC10689618
# Structures can show the parent of a compound that is named as a salt. This is one part of the list. Single values are uncertain, as repeats are few or missing.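 Labelled rat cortical synaptosomes were engulfed by primary human fetal astrocytes. Engulfment equaled a red/green ratio, corrected for calcein live-cell signal and normalized to the plate median. Compounds were toxic when calcein dropped over 30%, and reduced phagocytosis when below 70% of the median above 5 µM.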
# System: Human fetal astrocytes
# Assay: synaptosome phagocytosis (pHrodo/calcein intensity ratio) relative to plate median of data wells; higher = more phagocytosis
# Conditions: 11.11 µM; 24 h
row,SMILES,synaptosome phagocytosis
1,Cc1cc2c(cc1Cl)N(C(=O)Nc1cccc3ncccc13)CC2,94.7%
2,CNCC[C@@H](Oc1ccccc1C)c1ccccc1 [Tomoxetine],80.1%
3,CCSC(N)=Nc1ccc(C(F)(F)F)cc1 [TFPI hydrochloride],93.9%
4,NCCCCNS(=O)(=O)c1ccc2c(Cl)cccc2c1,111%
5,CC1CCN(CC[C@H]2CCCN2S(=O)(=O)c2cccc(O)c2)CC1,70.4%
6,OC[C@H]1O[C@@H](n2cnc3c(Nc4ccccc4)ncnc32)[C@H](O)[C@@H]1O [N6-Phenyladenosine],97.8%
7,CNCC[C@H](Oc1ccc(C(F)(F)F)cc1)c1ccccc1 [S-(+)-Fluoxetine hydrochloride],90.8%
8,Nc1nc(Cl)nc2c1ncn2[C@@H]1O[C@H](CO)[C@@H](O)[C@H]1O [2-Chloroadenosine],128%
9,C#C[C@]1(O)CC[C@H]2[C@@H]3CCC4=Cc5oncc5C[C@]4(C)[C@H]3CC[C@@]21C [Danazol],115%
10,N#C/C(=C\c1ccc(O)c(O)c1)C(=O)c1ccc(O)c(O)c1 [Tyrphostin AG 538],80.3%
11,NCC(O)c1ccc(O)c(O)c1 (racemic) [(±)-Norepinephrine (+)bitartrate],105%
12,CN1CCN(CCCN2c3ccccc3Sc3ccc(Cl)cc32)CC1 [Prochlorperazine dimaleate],60%
13,CCOC(=O)c1cnc2c(cnn2CC)c1NN=C(C)C [Etazolate hydrochloride],93.8%
14,NC/C=C/C(=O)O [(E)-4-amino-2-butenoic acid],119%
15,CCn1nc(C(=O)O)c(=O)c2cc3c(cc21)OCO3 [Cinoxacin],88.4%
16,CC(C)(C)[C@]1(O)CCN2C[C@H]3c4ccccc4CCc4cccc(c43)[C@@H]2C1 [(+)-Butaclamol hydrochloride],89.2%
17,CCCCCC(O)CCCC(=O)O (stereo not given) [5-hydroxydecanoic acid sodium],93.8%
18,CC(C)C1C2CCC(C2)C1N (stereo not given),124%
19,CC1(C)CCC2=C(O1)c1ccccc1C(=O)C2=O [beta-Lapachone],56.5%
20,Brc1c(NC2=NCCN2)ccc2nccnc12,128%

row,SMILES,synaptosome phagocytosis
1,"O=C1NC(=O)C(c2ccccc2)(c2ccccc2)N1 [5,5-Diphenylhydantoin]",122%
2,CN(C)c1ccc(/C=C2/C(=O)Nc3ccccc32)cc1,83.6%
3,CC(=O)NC(C(=O)O)C(C)(C)SN=O (stereo not given) [S-Nitroso-N-acetylpenicillamine],104%
4,COc1ccccc1N1CCN(CCN2C(=O)CC3(CCCC3)CC2=O)CC1 [BMY 7378 dihydrochloride],115%
5,CN1[C@@H]2CC[C@H]1CC(OC(=O)c1c[nH]c3ccccc13)C2 (stereo not given in full) [3-Tropanyl-indole-3-carboxylate hydrochloride],114%
6,"N=C(N)SCCc1ccc(CCSC(=N)N)cc1 [1,4-PBIT dihydrobromide]",108%
7,CC(CCc1ccc(O)cc1)NCCc1ccc(O)c(O)c1 (stereo not given) [Dobutamine hydrochloride],97.1%
8,CC[N+](C)(C)Cc1ccccc1Br [Bretylium tosylate],95.2%
9,N#C/C(=C\c1ccc(O)c(O)c1)C(=O)Nc1ccccc1 [Tyrphostin AG 494],124%
10,Brc1ccc([C@H]2CN3CCSC3=N2)cc1 [S(-)-p-Bromotetramisole oxalate],111%
11,"CN1C2CCC1CC(NC(=O)c1nn(C)c3ccccc13)C2 (stereo not given) [LY-278,584 maleate]",107%
12,C=C[C@H]1CN2CC[C@H]1C[C@H]2[C@H](O)c1ccnc2ccc(OC)cc12 [Quinine sulfate],79.6%
13,"NCCCCCCCCCCN [1,10-Diaminodecane]",94.5%
14,Cl.N[C@@H](CCC(=O)O)C(=O)O [L-Glutamic acid hydrochloride],103%
15,CCC(=O)c1ccc2c(c1)N(CCCN(C)C)c1ccccc1S2 [Propionylpromazine hydrochloride],74%
16,NC(=O)OCC(COC(N)=O)c1ccccc1 [Felbamate],69.7%
17,CNC(=O)c1cc2c(cn1)[nH]c1ccccc12 [N-Methyl-beta-carboline-3-carboxamide],109%
18,CCCCCCCCCC(=O)NC(CN1CCOCC1)[C@H](O)c1ccccc1 (mixture of isomers),90.1%
19,COc1cc2c(cc1OC)-c1c/c(=N\c3c(C)cc(C)cc3C)n(C)c(=O)n1CC2 [Trequinsin hydrochloride],124%
20,COC1(C2=NCCN2)COc2ccccc2O1 (stereo not given),105%

# Same assay, conditions: 22.22 µM; 24 h
row,SMILES,synaptosome phagocytosis
1,Cc1cc2c(cc1Cl)N(C(=O)Nc1cccc3ncccc13)CC2,112%
2,CNCC[C@@H](Oc1ccccc1C)c1ccccc1 [Tomoxetine],95%
3,CCSC(N)=Nc1ccc(C(F)(F)F)cc1 [TFPI hydrochloride],122%
4,NCCCCNS(=O)(=O)c1ccc2c(Cl)cccc2c1,107%
5,CC1CCN(CC[C@H]2CCCN2S(=O)(=O)c2cccc(O)c2)CC1,83.3%
6,OC[C@H]1O[C@@H](n2cnc3c(Nc4ccccc4)ncnc32)[C@H](O)[C@@H]1O [N6-Phenyladenosine],109%
7,CNCC[C@H](Oc1ccc(C(F)(F)F)cc1)c1ccccc1 [S-(+)-Fluoxetine hydrochloride],57%
8,Nc1nc(Cl)nc2c1ncn2[C@@H]1O[C@H](CO)[C@@H](O)[C@H]1O [2-Chloroadenosine],100%
9,C#C[C@]1(O)CC[C@H]2[C@@H]3CCC4=Cc5oncc5C[C@]4(C)[C@H]3CC[C@@]21C [Danazol],97.5%
10,N#C/C(=C\c1ccc(O)c(O)c1)C(=O)c1ccc(O)c(O)c1 [Tyrphostin AG 538],109%
11,NCC(O)c1ccc(O)c(O)c1 (racemic) [(±)-Norepinephrine (+)bitartrate],82.4%
12,CN1CCN(CCCN2c3ccccc3Sc3ccc(Cl)cc32)CC1 [Prochlorperazine dimaleate],31.9%
13,CCOC(=O)c1cnc2c(cnn2CC)c1NN=C(C)C [Etazolate hydrochloride],98.2%
14,NC/C=C/C(=O)O [(E)-4-amino-2-butenoic acid],141%
15,CCn1nc(C(=O)O)c(=O)c2cc3c(cc21)OCO3 [Cinoxacin],73.3%
16,CC(C)(C)[C@]1(O)CCN2C[C@H]3c4ccccc4CCc4cccc(c43)[C@@H]2C1 [(+)-Butaclamol hydrochloride],63.2%
17,CCCCCC(O)CCCC(=O)O (stereo not given) [5-hydroxydecanoic acid sodium],98%
18,CC(C)C1C2CCC(C2)C1N (stereo not given),65.5%
19,CC1(C)CCC2=C(O1)c1ccccc1C(=O)C2=O [beta-Lapachone],65.5%
20,Brc1c(NC2=NCCN2)ccc2nccnc12,102%

row,SMILES,synaptosome phagocytosis
1,"O=C1NC(=O)C(c2ccccc2)(c2ccccc2)N1 [5,5-Diphenylhydantoin]",126%
2,CN(C)c1ccc(/C=C2/C(=O)Nc3ccccc32)cc1,76.1%
3,CC(=O)NC(C(=O)O)C(C)(C)SN=O (stereo not given) [S-Nitroso-N-acetylpenicillamine],129%
4,COc1ccccc1N1CCN(CCN2C(=O)CC3(CCCC3)CC2=O)CC1 [BMY 7378 dihydrochloride],94.3%
5,CN1[C@@H]2CC[C@H]1CC(OC(=O)c1c[nH]c3ccccc13)C2 (stereo not given in full) [3-Tropanyl-indole-3-carboxylate hydrochloride],121%
6,"N=C(N)SCCc1ccc(CCSC(=N)N)cc1 [1,4-PBIT dihydrobromide]",97.2%
7,CC(CCc1ccc(O)cc1)NCCc1ccc(O)c(O)c1 (stereo not given) [Dobutamine hydrochloride],69%
8,CC[N+](C)(C)Cc1ccccc1Br [Bretylium tosylate],87.1%
9,N#C/C(=C\c1ccc(O)c(O)c1)C(=O)Nc1ccccc1 [Tyrphostin AG 494],101%
10,Brc1ccc([C@H]2CN3CCSC3=N2)cc1 [S(-)-p-Bromotetramisole oxalate],140%
11,"CN1C2CCC1CC(NC(=O)c1nn(C)c3ccccc13)C2 (stereo not given) [LY-278,584 maleate]",96.6%
12,C=C[C@H]1CN2CC[C@H]1C[C@H]2[C@H](O)c1ccnc2ccc(OC)cc12 [Quinine sulfate],119%
13,"NCCCCCCCCCCN [1,10-Diaminodecane]",120%
14,Cl.N[C@@H](CCC(=O)O)C(=O)O [L-Glutamic acid hydrochloride],92.9%
15,CCC(=O)c1ccc2c(c1)N(CCCN(C)C)c1ccccc1S2 [Propionylpromazine hydrochloride],80.4%
16,NC(=O)OCC(COC(N)=O)c1ccccc1 [Felbamate],94.3%
17,CNC(=O)c1cc2c(cn1)[nH]c1ccccc12 [N-Methyl-beta-carboline-3-carboxamide],105%
18,CCCCCCCCCC(=O)NC(CN1CCOCC1)[C@H](O)c1ccccc1 (mixture of isomers),91.5%
19,COc1cc2c(cc1OC)-c1c/c(=N\c3c(C)cc(C)cc3C)n(C)c(=O)n1CC2 [Trequinsin hydrochloride],86.9%
20,COC1(C2=NCCN2)COc2ccccc2O1 (stereo not given),72.5%
